From PMC11856406
These are yes or no findings as the source states them, for the method shown. Binding seen in cells or lysates may run through a third protein. Some binding calls cover weakened binding; strength is not graded here.

Protein sequences, listed by entry. Tags and fused reporters are not part of them.
UniProt B2RWS6: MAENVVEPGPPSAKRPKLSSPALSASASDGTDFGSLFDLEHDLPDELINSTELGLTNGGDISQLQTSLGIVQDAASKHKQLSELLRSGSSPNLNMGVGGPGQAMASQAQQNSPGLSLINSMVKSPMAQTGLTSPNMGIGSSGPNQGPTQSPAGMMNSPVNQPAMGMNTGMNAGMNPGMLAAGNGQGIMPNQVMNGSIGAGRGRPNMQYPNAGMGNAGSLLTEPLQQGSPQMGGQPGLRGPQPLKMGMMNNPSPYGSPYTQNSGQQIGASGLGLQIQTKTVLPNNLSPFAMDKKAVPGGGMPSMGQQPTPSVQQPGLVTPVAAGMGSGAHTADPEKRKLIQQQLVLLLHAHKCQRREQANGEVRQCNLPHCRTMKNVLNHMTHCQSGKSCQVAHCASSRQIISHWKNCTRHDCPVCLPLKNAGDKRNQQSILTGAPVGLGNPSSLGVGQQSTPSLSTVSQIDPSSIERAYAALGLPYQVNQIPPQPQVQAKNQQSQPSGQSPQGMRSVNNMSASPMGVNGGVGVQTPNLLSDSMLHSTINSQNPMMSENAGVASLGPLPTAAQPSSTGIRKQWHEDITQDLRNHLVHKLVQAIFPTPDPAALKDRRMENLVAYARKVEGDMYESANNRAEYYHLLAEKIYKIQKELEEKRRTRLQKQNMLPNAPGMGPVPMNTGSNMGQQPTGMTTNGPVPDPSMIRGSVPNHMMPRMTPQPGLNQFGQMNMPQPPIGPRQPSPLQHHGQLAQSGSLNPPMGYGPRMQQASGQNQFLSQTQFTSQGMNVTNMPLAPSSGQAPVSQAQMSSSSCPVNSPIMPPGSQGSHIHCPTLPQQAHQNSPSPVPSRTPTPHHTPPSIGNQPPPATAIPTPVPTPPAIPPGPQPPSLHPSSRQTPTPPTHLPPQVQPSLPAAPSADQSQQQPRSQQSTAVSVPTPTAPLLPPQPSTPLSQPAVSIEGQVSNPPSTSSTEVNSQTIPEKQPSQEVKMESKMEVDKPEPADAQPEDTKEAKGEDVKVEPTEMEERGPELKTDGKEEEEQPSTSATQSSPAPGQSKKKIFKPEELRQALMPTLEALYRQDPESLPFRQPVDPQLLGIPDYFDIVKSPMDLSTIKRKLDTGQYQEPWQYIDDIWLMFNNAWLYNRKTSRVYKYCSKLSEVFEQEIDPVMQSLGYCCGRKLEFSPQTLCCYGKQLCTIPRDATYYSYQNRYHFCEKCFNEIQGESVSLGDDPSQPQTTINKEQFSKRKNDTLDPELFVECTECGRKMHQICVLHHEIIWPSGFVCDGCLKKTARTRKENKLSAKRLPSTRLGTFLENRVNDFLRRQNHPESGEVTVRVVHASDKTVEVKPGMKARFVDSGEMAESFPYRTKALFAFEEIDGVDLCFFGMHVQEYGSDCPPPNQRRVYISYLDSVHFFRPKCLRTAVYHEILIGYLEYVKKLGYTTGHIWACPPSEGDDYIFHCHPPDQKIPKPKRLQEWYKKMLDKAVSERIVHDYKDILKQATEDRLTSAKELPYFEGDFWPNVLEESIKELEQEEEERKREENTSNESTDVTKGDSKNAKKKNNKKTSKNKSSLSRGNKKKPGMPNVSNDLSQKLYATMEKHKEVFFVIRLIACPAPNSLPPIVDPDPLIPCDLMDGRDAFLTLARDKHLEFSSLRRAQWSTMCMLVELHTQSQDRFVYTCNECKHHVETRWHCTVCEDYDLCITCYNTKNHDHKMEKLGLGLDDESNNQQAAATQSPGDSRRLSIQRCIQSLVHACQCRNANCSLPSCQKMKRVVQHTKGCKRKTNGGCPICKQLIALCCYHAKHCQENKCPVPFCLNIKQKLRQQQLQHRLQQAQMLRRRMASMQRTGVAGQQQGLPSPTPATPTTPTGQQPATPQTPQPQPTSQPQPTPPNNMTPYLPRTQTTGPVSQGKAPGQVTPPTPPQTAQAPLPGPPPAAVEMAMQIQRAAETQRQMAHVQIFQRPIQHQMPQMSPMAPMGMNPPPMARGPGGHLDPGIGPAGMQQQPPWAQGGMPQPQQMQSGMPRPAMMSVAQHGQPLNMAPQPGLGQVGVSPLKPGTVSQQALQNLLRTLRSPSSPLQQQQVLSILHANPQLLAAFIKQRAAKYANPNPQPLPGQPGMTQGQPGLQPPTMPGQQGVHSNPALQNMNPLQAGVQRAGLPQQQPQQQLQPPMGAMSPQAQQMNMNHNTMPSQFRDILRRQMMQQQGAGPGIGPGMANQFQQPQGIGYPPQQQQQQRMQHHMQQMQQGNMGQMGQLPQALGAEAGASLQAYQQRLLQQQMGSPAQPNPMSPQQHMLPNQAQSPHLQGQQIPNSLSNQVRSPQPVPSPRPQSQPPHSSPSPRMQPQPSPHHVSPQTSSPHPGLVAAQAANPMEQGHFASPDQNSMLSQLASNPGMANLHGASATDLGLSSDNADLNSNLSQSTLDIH
UniProt Q6DIC0: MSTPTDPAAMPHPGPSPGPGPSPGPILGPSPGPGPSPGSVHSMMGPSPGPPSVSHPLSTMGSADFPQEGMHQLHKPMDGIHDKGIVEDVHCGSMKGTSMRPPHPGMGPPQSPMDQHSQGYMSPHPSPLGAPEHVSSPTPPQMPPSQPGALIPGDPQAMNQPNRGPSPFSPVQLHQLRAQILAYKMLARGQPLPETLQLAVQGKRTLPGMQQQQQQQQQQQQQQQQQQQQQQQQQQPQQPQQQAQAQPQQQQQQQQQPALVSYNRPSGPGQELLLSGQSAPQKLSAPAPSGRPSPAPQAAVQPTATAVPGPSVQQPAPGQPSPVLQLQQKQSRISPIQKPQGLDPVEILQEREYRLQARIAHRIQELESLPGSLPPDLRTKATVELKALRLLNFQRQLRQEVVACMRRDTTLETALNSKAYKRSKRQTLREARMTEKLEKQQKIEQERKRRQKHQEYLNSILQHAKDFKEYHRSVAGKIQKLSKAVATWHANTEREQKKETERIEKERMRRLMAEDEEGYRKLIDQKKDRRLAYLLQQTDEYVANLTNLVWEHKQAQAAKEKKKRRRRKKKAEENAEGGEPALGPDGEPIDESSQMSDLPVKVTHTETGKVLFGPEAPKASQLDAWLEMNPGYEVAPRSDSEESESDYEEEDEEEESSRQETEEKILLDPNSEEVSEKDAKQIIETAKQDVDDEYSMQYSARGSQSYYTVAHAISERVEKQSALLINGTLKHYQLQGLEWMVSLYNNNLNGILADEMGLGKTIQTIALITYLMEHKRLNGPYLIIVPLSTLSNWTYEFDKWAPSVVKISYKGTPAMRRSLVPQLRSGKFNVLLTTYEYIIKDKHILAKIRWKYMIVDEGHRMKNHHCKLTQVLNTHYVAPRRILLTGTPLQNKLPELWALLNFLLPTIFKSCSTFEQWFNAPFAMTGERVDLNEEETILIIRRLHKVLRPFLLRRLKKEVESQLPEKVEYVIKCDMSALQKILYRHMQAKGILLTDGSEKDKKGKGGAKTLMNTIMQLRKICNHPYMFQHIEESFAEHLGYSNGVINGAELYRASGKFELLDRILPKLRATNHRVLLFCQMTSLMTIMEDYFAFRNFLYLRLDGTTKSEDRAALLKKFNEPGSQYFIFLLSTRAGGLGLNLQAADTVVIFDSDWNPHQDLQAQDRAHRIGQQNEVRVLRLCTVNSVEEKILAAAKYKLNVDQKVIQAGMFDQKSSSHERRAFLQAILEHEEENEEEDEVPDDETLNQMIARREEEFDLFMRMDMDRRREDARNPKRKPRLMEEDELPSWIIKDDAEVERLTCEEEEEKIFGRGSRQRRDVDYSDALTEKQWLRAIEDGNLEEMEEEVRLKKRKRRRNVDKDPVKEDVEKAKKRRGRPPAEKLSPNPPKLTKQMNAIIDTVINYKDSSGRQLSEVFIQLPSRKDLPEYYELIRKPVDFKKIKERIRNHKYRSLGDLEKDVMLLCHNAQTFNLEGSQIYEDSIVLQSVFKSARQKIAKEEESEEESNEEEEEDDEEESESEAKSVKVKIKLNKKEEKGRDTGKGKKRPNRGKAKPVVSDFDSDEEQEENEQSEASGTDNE

Legend:
Test in all cases: proximity ligation; in situ Duolink PLA (distances < 40 nm) at endogenous protein levels on primary cortical neurons fixed at DIC7, wild-type and 189N3 transgenic; interaction points counted in the nuclear body of 45 to 89 neurons
[1] = target: CREBBP (mouse (endogenous in primary cortical neurons)) (UniProt P45481)
[2] = target: EP300 (mouse (endogenous in primary cortical neurons)) (UniProt B2RWS6)
[3] = target: SMARCA2 (mouse (endogenous in primary cortical neurons)) (UniProt Q6DIC0)

| binding [1] | binding [2] | binding [3] | Substance |
| --- | --- | --- | --- |
| binds | binds |  | DYRK1A (dual-specificity tyrosine phosphorylated and regulated kinase 1A) (from UniProt Q61214 1-763) |
|  |  | binds | CREBBP (from UniProt P45481 1-2441) |
